Test results published in doi:10.1101/2024.09.20.612365, “Preventing Inappropriate Signals Pre- and Post-Ligand Perception by a Toggle-Switch Mechanism of ERECTA” (bioRxiv, 2024).

Experiments:
[1] = molecular target: T1, GST-PUB30 (plant U-box E3 ligase PUB30) (Arabidopsis, UniProt Q058P4 1-448); test: condition: 10,000 nM (highest of the seven concentrations); BLI; recombinantly purified GST-BKI1 or GST-PUB30 and MBP-ER_CD variants at seven concentrations (156.25, 312.5, 625, 1,250, 2,500, 5,000 and 10,000 nM); representative of three independent experiments; both purified
T1 construct: U-box E3 ubiquitin ligase PUB30, Arabidopsis; source: recombinantly purified
T1 sequence (looked up): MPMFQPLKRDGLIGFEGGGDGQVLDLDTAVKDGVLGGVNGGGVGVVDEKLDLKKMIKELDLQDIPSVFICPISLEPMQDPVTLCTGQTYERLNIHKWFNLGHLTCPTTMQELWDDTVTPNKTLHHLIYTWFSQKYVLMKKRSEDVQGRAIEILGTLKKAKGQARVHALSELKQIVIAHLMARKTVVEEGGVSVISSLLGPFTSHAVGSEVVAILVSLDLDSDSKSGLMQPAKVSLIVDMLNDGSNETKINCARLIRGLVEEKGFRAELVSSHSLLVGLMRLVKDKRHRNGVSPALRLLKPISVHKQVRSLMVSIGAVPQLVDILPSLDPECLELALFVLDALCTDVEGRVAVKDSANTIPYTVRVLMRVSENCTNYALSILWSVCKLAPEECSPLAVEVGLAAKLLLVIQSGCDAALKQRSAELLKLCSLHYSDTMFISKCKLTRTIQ

[2] = molecular target: T2, GST-BKI1 (BRI1 KINASE INHIBITOR 1) (Arabidopsis) (UniProt Q9FMZ0); test: as above
T2 sequence: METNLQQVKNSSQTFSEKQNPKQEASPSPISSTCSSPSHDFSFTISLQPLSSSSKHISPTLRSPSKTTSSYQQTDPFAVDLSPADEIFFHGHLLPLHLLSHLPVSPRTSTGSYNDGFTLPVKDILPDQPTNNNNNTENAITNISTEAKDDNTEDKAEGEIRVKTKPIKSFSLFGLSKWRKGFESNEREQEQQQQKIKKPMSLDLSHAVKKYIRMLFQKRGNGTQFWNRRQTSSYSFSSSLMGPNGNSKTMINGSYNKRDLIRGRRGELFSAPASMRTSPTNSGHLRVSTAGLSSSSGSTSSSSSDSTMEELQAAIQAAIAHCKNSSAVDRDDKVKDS

Substance: MBP-ER_CD_(ΔC43) (Arabidopsis) (domain or fragment)
- binding [1]: no binding
- binding [2]: no binding

Results are given in words; binding and its absence hold for the method and conditions named. Sequences can lack the tags named with a protein.
